This passage reports binding results from publication PMC9054788.

In this experiment the target is T1, Midkine (UniProt P21741).
T1 sequence: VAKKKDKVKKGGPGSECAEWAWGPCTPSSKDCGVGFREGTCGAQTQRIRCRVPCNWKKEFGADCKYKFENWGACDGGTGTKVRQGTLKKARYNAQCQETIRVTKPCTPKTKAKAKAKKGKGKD
The experiment is described as follows: pull-down; indicated constructs expressed in HEK293T cells for 24 h; cell lysates pulled down with S protein beads (Fig. 2b, c).

No constants are given. Whether binding was seen depends on the method and setting. Binding seen in cells or lysates may run through a third protein. Binding can be weak; no strength is given.

In the case of AMPKγ (human (endogenous in HEK293T)), the binding result is “binds”.
